Experimental data from the supplement of paper PMC10689618.
The list shows a part of the results. Repeats are few or missing, and single values can be far off.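 Primary human fetal astrocytes engulfed labelled rat cortical synaptosomes, measured as a red/green ratio corrected for calcein live-cell signal and scaled to the plate median. Toxicity meant calcein falling over 30%; decreased phagocytosis meant below 70% of median above 5 µM.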

Tests used:
[1] = system: Human fetal astrocytes; test: loss of total cells relative to no-compound high-control median (toxicity); higher = more toxic (fewer cells); settings: 24 h
[2] = system: Human fetal astrocytes; test: synaptosome phagocytosis (pHrodo/calcein intensity ratio) relative to plate median of data wells; higher = more phagocytosis; settings: 24 h

| Compound | loss of total cells ([1]; 1.39 µM) | loss of total cells ([1]; 2.78 µM) | loss of total cells ([1]; 5.56 µM) | loss of total cells ([1]; 11.11 µM) | loss of total cells ([1]; 22.22 µM) | synaptosome phagocytosis ([2]; 1.39 µM) | synaptosome phagocytosis ([2]; 2.78 µM) | synaptosome phagocytosis ([2]; 5.56 µM) | synaptosome phagocytosis ([2]; 11.11 µM) | synaptosome phagocytosis ([2]; 22.22 µM) |
| --- | --- | --- | --- | --- | --- | --- | --- | --- | --- | --- |
| CN(CCOc1ccc(CC2SC(=O)NC2=O)cc1)c1ccccn1 (stereo not given) | -5.8% | -8.2% | 15.9% | -18% | 8.5% | 90.7% | 111% | 104% | 122% | 110% |
| O=C(O)[C@H](O)[C@@](O)(Cc1ccc(O)cc1)C(=O)O | 27.9% | 9.3% | -29% | 25.2% | 34.4% | 151% | 112% | 86.6% | 91.1% | 143% |
| COc1ccccc1OCCNCC(O)COc1cccc2[nH]c3ccccc3c12 (stereo not given) [Carvedilol] | 10.5% | -10.3% | -0.6% | -4.3% | 14.6% | 154% | 108% | 98.7% | 62.3% | 56% |
| CC(=O)N1CCN(c2ccc(OCC3COC(Cn4ccnc4)(c4ccc(Cl)cc4Cl)O3)cc2)CC1 (stereo not given) | -4.5% | 1% | 7% | -3.2% | 32.5% | 100% | 104% | 107% | 93.4% | 101% |
| CN(C)CCC=C1c2ccccc2COc2ccccc21 [Doxepin] | 3.9% | -3.1% | 0% | 1.4% | -10% | 94.6% | 99.1% | 50.8% | 88.9% | 90% |
| OCc1c[nH]c2ccccc12 | -9.8% | -7.6% | 2.2% | 16.2% | 0.7% | 132% | 76.5% | 125% | 77.3% | 99.4% |
| O=c1c(-c2cc(O)c(O)c(O)c2)coc2cc(O)c(O)c(O)c12 | 10.5% | 35% | 38.4% | 40.6% | 41.7% | 98.7% | 150% | 104% | 136% | 122% |
| COC(=O)c1c(C)c2c(c(C)c1O)OC(=O)c1c(C)c(Cl)c(O)c(Cl)c1O2 | -19.2% | -12% | 33.6% | 39.4% | 4.8% | 80.8% | 100% | 108% | 58.7% | 102% |
| CC(=O)Oc1cccc2c1C(=O)c1c(OC(C)=O)cc(C(=O)O)cc1C2=O | 10.5% | 1.8% | 23.2% | 6.3% | 2.3% | 118% | 119% | 131% | 104% | 95.6% |
| O=C1c2ccccc2C(=O)C1c1ccccc1 | 14.9% | -7% | 19.5% | -15.6% | 10.8% | 112% | 92.9% | 119% | 99.8% | 143% |
| COc1ccc(-c2cc(=O)c3c(OC)c(OC)c(OC)cc3o2)cc1OC | 0.8% | -4% | 9.5% | 23% | 20.7% | 137% | 108% | 138% | 97.3% | 94.3% |
| CN1CCN(C(c2ccccc2)c2ccccc2)CC1 | -10.4% | -21.4% | 3.5% | -2.6% | 23.4% | 113% | 112% | 86.4% | 75% | 103% |
| O=C1OCCN1/N=C/c1ccc([N+](=O)[O-])o1 | 9.2% | -18% | 7% | -13% | 27.7% | 100% | 90.1% | 113% | 94.1% | 91.6% |
| COC(=O)c1c(C)cc(OC(=O)c2c(C)cc(O)c(C=O)c2O)c(C)c1O | -12% | -3.3% | 5.3% | -18.7% | -6.3% | 129% | 84.3% | 117% | 76.3% | 112% |
| Cc1c(N(C)CS(=O)(=O)O)c(=O)n(-c2ccccc2)n1C | -8.1% | -42.9% | 5% | 4.9% | 0.3% | 118% | 91.9% | 114% | 119% | 141% |
| COc1c(N2CCNC(C)C2)c(F)cc2c(=O)c(C(=O)O)cn(C3CC3)c12 (stereo not given) | 13.7% | -38.1% | 5% | -5.6% | -0.9% | 114% | 91.7% | 95.2% | 106% | 104% |
| CCN(CC)CCOC(=O)C(c1ccccc1)c1ccccc1 | -46% | -24.6% | -1.2% | 10.2% | 12.8% | 79.7% | 89.8% | 81% | 104% | 105% |
| COC(=O)[C@@H]1OC(=O)C2OC23[C@@]1(C)CCC1[C@@]2(C)CCC(=O)C(C)(C)C2C[C@@H](OC(C)=O)[C@]13C (stereo not given in full) | 5.4% | -15.3% | -6.1% | 32.3% | -16.7% | 132% | 87.3% | 95.6% | 96.3% | 70.4% |
| CN(C)CCc1c[nH]c2ccc(C[C@H]3COC(=O)N3)cc12 | -28.2% | -23.5% | 2.1% | -21.9% | -0.6% | 106% | 85.9% | 96.7% | 113% | 100% |
| CCC(=O)OCC(=O)[C@@]1(OC(=O)CC)[C@@H](C)C[C@H]2[C@@H]3CCC4=CC(=O)C=C[C@]4(C)[C@@]3(Cl)[C@@H](O)C[C@@]21C | -12.4% | -17.4% | 5.1% | -14.8% | 9.6% | 106% | 81.1% | 112% | 106% | 77.6% |
| OCc1ccccc1O[C@@H]1O[C@H](CO)[C@@H](O)[C@H](O)[C@H]1O | -40.3% | -54.8% | -3.7% | 40.3% | -0.3% | 97.2% | 84.5% | 129% | 124% | 59.3% |

One compound at a time, as listed above. Values in the order: loss of total cells ([1]; 1.39 µM)	loss of total cells ([1]; 2.78 µM)	loss of total cells ([1]; 5.56 µM)	loss of total cells ([1]; 11.11 µM)	loss of total cells ([1]; 22.22 µM)	synaptosome phagocytosis ([2]; 1.39 µM)	synaptosome phagocytosis ([2]; 2.78 µM)	synaptosome phagocytosis ([2]; 5.56 µM)	synaptosome phagocytosis ([2]; 11.11 µM)	synaptosome phagocytosis ([2]; 22.22 µM)
`CCC(=O)OCC(=O)[C@@]1(OC(=O)CC)[C@@H](C)C[C@H]2[C@@H]3CCC4=CC(=O)C=C[C@]4(C)[C@@]3(Cl)[C@@H](O)C[C@@]21C` as listed: -12.4%	-17.4%	5.1%	-14.8%	9.6%	106%	81.1%	112%	106%	77.6%
`COC(=O)[C@@H]1OC(=O)C2OC23[C@@]1(C)CCC1[C@@]2(C)CCC(=O)C(C)(C)C2C[C@@H](OC(C)=O)[C@]13C` (stereo not given in full) as listed: 5.4%	-15.3%	-6.1%	32.3%	-16.7%	132%	87.3%	95.6%	96.3%	70.4%
`CC(=O)N1CCN(c2ccc(OCC3COC(Cn4ccnc4)(c4ccc(Cl)cc4Cl)O3)cc2)CC1` (stereo not given) as listed: -4.5%	1%	7%	-3.2%	32.5%	100%	104%	107%	93.4%	101%

Additional entries

| Compound | loss of total cells ([1]; 1.39 µM) | loss of total cells ([1]; 2.78 µM) | loss of total cells ([1]; 5.56 µM) | loss of total cells ([1]; 11.11 µM) | loss of total cells ([1]; 22.22 µM) | synaptosome phagocytosis ([2]; 1.39 µM) | synaptosome phagocytosis ([2]; 2.78 µM) | synaptosome phagocytosis ([2]; 5.56 µM) | synaptosome phagocytosis ([2]; 11.11 µM) | synaptosome phagocytosis ([2]; 22.22 µM) |
| --- | --- | --- | --- | --- | --- | --- | --- | --- | --- | --- |
| CC(=O)N[C@@H](C=O)[C@@H](O[C@H](C)C(=O)O)[C@H](O)[C@H](O)CO | 10.5% | -0.4% | 11.6% | 16.3% | 12.1% | 77.1% | 116% | 105% | 84.3% | 102% |
| C=C[C@@]1(C)CC(=O)[C@]2(O)[C@@]3(C)[C@@H](O)CCC(C)(C)[C@@H]3[C@H](O)[C@H](OC(C)=O)[C@@]2(C)O1 | -28.2% | -8.7% | 6.2% | 21.3% | 10.3% | 64.3% | 70.4% | 83% | 70.2% | 117% |
| CC(C)=CCC/C(C)=C/COc1ccc2ccc(=O)oc2c1 | 1.6% | -12.6% | -5.1% | 14.9% | 14.8% | 138% | 96.8% | 80.5% | 85.3% | 133% |
| CC(=O)O[C@@H]1CC2C(C)(C)[C@H](O)CC[C@]2(C)C2CC[C@@]3(C)[C@H](c4ccoc4)OC(=O)C4OC43[C@@]21C (stereo partly drawn) [alpha-DIHYDROGEDUNOL] | 22.7% | -6.9% | 18.1% | -21.3% | -1.5% | 142% | 128% | 111% | 63.9% | 87.6% |
| CN[C@@H]1[C@@H](O[C@H]2O[C@H](CO)[C@@H](N)[C@H](O)[C@H]2O)OC2C[C@@H](N)[C@@H](O[C@H]3[C@H](O)[C@@H](O)[C@H](N)C[C@@H]3N)OC2[C@@H]1O (stereo not given in full) | -40.3% | -22.2% | -0.6% | 43.6% | 8.4% | 125% | 120% | 99.3% | 129% | 121% |
| Oc1ncnc2[nH]ncc12 | 2.5% | -15.5% | 8.1% | -7.8% | 9.6% | 81.9% | 115% | 99.7% | 108% | 112% |
| C#CCCCCCCCCCCCC(O)CC(O)COC(C)=O (stereo not given) | 9.7% | 17.7% | -0.7% | 6.3% | 13.6% | 72.8% | 70.8% | 70.3% | 71.6% | 48.6% |
| COc1ccc2[nH]c([S+]([O-])Cc3ncc(C)c(OC)c3C)nc2c1 (stereo not given) | -11.6% | -0.9% | 0.3% | -5.5% | 7.4% | 56.6% | 97.9% | 112% | 75.9% | 89.3% |
| COc1cc2nc(N(C)CCCNC(=O)C3CCCO3)nc(N)c2cc1OC (stereo not given) | -25.8% | -17.5% | 10.6% | 39.7% | 7.8% | 115% | 100% | 112% | 138% | 69.1% |
| O=c1cc(-c2ccc(O)cc2)oc2ccc(O)cc12 | -19.7% | -5.4% | -1.5% | 0% | 4.4% | 122% | 85.7% | 123% | 74.2% | 104% |
| Cc1ncc([N+](=O)[O-])n1CCO | 2.5% | 0.9% | -0.9% | -3.9% | -2.8% | 103% | 140% | 114% | 121% | 109% |
| COc1c2occc2cc2ccc(=O)oc12 | 6.8% | -1% | 8.4% | -13% | 39.8% | 113% | 113% | 133% | 99.7% | 151% |
| Cc1cc(O)cc(O)c1C(=O)O | 4% | 6.6% | -7.6% | 26.5% | 21.9% | 90.4% | 99.6% | 104% | 110% | 146% |
| C[C@H]1CC[C@@H](C(C)(C)O)CC2=C1CC[C@@H]2C | -24.6% | -3.2% | -9.5% | 17.6% | 7.4% | 94.4% | 107% | 131% | 119% | 124% |
| CC1(C)[C@@H](O)CC[C@]2(C)[C@H]3C(=O)C=C4[C@H]5C[C@@](C)(C(=O)O)CC[C@]5(C)CC[C@@]4(C)[C@]3(C)CC[C@@H]12 [18alpha-GLYCYRRHETINIC ACID] | -9% | -10.5% | -6.6% | -3.4% | 16.3% | 124% | 91.4% | 111% | 84.8% | 126% |
| C[n+]1cc2c3c(ccc2c2ccc4cc5c(cc4c21)OCO5)OCO3 | -19.9% | 11.3% | 3.9% | 46.1% | 67.4% | 72.9% | 69% | 47.4% | 29% | 2.4% |
| O=C(/C=C/C(=O)Oc1ccccc1C(=O)O)Oc1ccccc1C(=O)O | -22.1% | 0.4% | -23.4% | 2% | 17% | 104% | 94.1% | 146% | 120% | 136% |
| COC(=O)[C@H](Cc1ccccc1)NC(=O)[C@@H](N)CC(=O)O | 6.6% | -26.5% | 11.1% | -13.3% | 21.5% | 110% | 120% | 127% | 126% | 147% |
| C[C@]12CC[C@@H]3c4ccc(O)cc4CC[C@H]3[C@@H]1CC[C@@H]2O | -0.9% | -29.5% | -11.1% | 6.6% | -8.8% | 72.9% | 74.7% | 83.7% | 82.9% | 66% |
| CCc1ccc(CCOc2ccc(CC3SC(=O)NC3=O)cc2)nc1 (stereo not given) | -25.8% | -30.2% | -0.6% | 45.6% | 8.4% | 122% | 132% | 109% | 120% | 126% |
| CN1CCC[C@@H]1CCO[C@](C)(c1ccccc1)c1ccc(Cl)cc1 | 8.6% | -3.7% | -6.3% | 13% | 10% | 85% | 80.7% | 94.5% | 49.8% | 37.2% |
